Experimental data: PubChem BioAssay AID1159584 (Peter MacCallum Cancer Centre, 2016)

Screen: 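Genes that CDH1-null MCF10A cells selectively depend on to survive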 (primary screen)
Cell system: human MCF10A breast epithelial cells, parental and CDH1-null
Reagents: siRNA against human genes
Measured: 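ATP luminescence (CellTiter-Glo) viability per line relative to mean mock wells over all plates, and the ratio of CDH1-null to parental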
Reading the numbers: CDH1-null / parental viability ratio: higher = CDH1-null cells survive relatively better than parental
This is an unselected part of about 18,000 reagents. Not all columns of the deposit are shown. The record does not give: the amount of reagent, the time to read-out.

Gene	CDH1-null / parental viability ratio
RHEBL1 (RHEB like 1)	0.93
CPNE3 (copine 3)	0.95
ITGAM (integrin subunit alpha M)	1.6
GADD45B (growth arrest and DNA damage inducible beta)	1.04
SAYSD1 (SAYSVFN motif domain containing 1)	1.09
SPIN2A (spindlin family member 2A)	0.99
SPATA19 (spermatogenesis associated 19)	0.83
PES1 (pescadillo ribosomal biogenesis factor 1)	1
P2RX1 (purinergic receptor P2X 1)	1.37
BARX1 (BARX homeobox 1)	0.87
F2R (coagulation factor II thrombin receptor)	0.78
ARL5A (ARF like GTPase 5A)	0.87
MTDH (metadherin)	1.01
PDGFC (platelet derived growth factor C)	1.16
SEC23A (SEC23 homolog A, COPII component)	0.84
XXYLT1 (xyloside xylosyltransferase 1)	0.81
NRN1 (neuritin 1)	0.92
CLEC4G (C-type lectin domain family 4 member G)	1.15
NDUFS3 (NADH:ubiquinone oxidoreductase core subunit S3)	1.17
MOB3C (MOB kinase activator 3C)	1.13
DPM2 (dolichyl-phosphate mannosyltransferase subunit 2, regulatory)	0.99
NANP (N-acetylneuraminic acid phosphatase)	1.53
FAM135A (family with sequence similarity 135 member A)	0.95
SAMD3 (sterile alpha motif domain containing 3)	0.93
CREB3L4 (cAMP responsive element binding protein 3 like 4)	1.47
JSRP1 (junctional sarcoplasmic reticulum protein 1)	1.08
PPP1R16A (protein phosphatase 1 regulatory subunit 16A)	1.2
PIP4K2B (phosphatidylinositol-5-phosphate 4-kinase type 2 beta)	0.89
SETD2 (SET domain containing 2, histone lysine methyltransferase)	0.85
PRDM16 (PR/SET domain 16)	0.96
LRFN3	0.94
MUC2 (mucin 2, oligomeric mucus/gel-forming)	0.83
SUN2 (Sad1 and UNC84 domain containing 2)	0.76
PXK (PX domain containing serine/threonine kinase like)	0.95
PRDM13 (PR/SET domain 13)	0.86
HPRT1 (hypoxanthine phosphoribosyltransferase 1)	1.04
OR2C1 (olfactory receptor family 2 subfamily C member 1)	1.2
PKP1 (plakophilin 1)	1.27
TSPYL5 (TSPY like 5)	1.15
HTN1 (histatin 1)	1.21
SPATA20 (spermatogenesis associated 20)	1.05
SLX1A (structure-specific endonuclease subunit SLX1A)	1.03
NXPH2 (neurexophilin 2)	0.86
ZNF71 (zinc finger protein 71)	1.42
SFT2D2 (SFT2 domain containing 2)	0.92
SLC16A6	1.06
ONECUT2 (one cut homeobox 2)	0.91
TIMP2 (TIMP metallopeptidase inhibitor 2)	1
NUDT16 (nudix hydrolase 16)	0.71
TSHB (thyroid stimulating hormone subunit beta)	1.24
DDX19A (DEAD-box helicase 19A)	0.78
PLD3 (phospholipase D family member 3)	1.04
METTL15 (methyltransferase 15, mitochondrial 12S rRNA N4-cytidine)	1.08
HELZ (helicase with zinc finger)	0.78
ZFAND5 (zinc finger AN1-type containing 5)	0.85
TTLL12 (tubulin tyrosine ligase like 12)	1
PDZD4 (PDZ domain containing 4)	0.81
ISCU (iron-sulfur cluster assembly enzyme)	1.17
CAND2 (cullin associated and neddylation dissociated 2 (putative))	1.09
DRAM2 (DNA damage regulated autophagy modulator 2)	0.98
RHD (Rh blood group D antigen)	0.92
ANXA4 (annexin A4)	1.59
LRRC43 (leucine rich repeat containing 43)	1.12
PARVG (parvin gamma)	1.3
HLCS (holocarboxylase synthetase)	0.99
IRF7 (interferon regulatory factor 7)	0.87
GAPT (GRB2 binding adaptor protein, transmembrane)	1.13
DHRS7 (dehydrogenase/reductase 7)	0.75

10 neighbouring records from above, quoted:
Gene	CDH1-null / parental viability ratio
ONECUT2 (one cut homeobox 2)	0.91
TIMP2 (TIMP metallopeptidase inhibitor 2)	1
NUDT16 (nudix hydrolase 16)	0.71
TSHB (thyroid stimulating hormone subunit beta)	1.24
DDX19A (DEAD-box helicase 19A)	0.78
PLD3 (phospholipase D family member 3)	1.04
METTL15 (methyltransferase 15, mitochondrial 12S rRNA N4-cytidine)	1.08
HELZ (helicase with zinc finger)	0.78
ZFAND5 (zinc finger AN1-type containing 5)	0.85
TTLL12 (tubulin tyrosine ligase like 12)	1
